Measured values from article PMC5554226.
Results are given in words; binding and its absence hold for the method and conditions named. In cells and extracts the contact can be indirect. Some binding calls cover weakened binding; strength is not graded here.

Amino acid sequences for entries named in this document (tags omitted).
UniProt P08588: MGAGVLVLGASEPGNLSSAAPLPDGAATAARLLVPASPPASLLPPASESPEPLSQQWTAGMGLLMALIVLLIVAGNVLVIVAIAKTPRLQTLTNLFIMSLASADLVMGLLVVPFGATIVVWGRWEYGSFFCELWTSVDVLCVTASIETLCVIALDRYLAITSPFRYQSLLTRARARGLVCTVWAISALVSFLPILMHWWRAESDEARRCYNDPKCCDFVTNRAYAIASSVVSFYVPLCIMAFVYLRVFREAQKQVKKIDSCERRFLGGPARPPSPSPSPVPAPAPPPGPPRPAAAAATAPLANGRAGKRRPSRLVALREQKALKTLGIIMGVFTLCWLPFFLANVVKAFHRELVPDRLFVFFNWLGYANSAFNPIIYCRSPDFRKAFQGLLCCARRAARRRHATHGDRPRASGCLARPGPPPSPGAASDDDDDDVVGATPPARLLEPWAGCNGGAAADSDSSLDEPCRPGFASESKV
UniProt P63096: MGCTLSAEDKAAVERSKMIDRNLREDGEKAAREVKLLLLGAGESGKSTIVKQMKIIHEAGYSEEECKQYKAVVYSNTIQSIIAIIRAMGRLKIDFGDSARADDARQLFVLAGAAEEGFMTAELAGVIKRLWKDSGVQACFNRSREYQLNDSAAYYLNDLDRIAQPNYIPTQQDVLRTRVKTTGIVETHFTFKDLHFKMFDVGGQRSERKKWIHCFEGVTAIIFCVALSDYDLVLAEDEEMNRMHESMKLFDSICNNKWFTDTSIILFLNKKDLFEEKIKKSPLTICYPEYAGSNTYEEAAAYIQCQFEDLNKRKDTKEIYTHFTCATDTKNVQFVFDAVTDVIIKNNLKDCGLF

Target: β1-AR-GFP10 (UniProt P08588)
Test: FRET or BRET; BRET2 in living HEK293T cells between Gα-Rluc8 and β1-AR-GFP10 or β2-AR-GFP10 with untagged Gγ2 and Gβ3; several Gαi1-Rluc8 expression levels; with or without 10 µM ISO, NE or EPI for 1 min

Substance: Gαi1-Rluc8 (from UniProt P63096 1-354)
- binding: binds
